Library screening results

Values are the deposited “Percent Effect”, in %. The record does not define 0% and 100%; most values in the screen are far below 50% and negative numbers occur (in some assays of this library far below -100). Compounds were drawn at random from those tested, without regard to their results. Two or more numbers in one place are separate tests of the same structure; such repeats can differ widely.

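Viability assay of Plasmodium falciparum sporozoites; the read-out is not stated. The concentration is filed as 10 mM, unlikely as a test dose, so the dose is not known. The record gives no direction; compounds that gave an IC50 in retests scored well above the rest, so higher reads as lower viability. Strong results were mostly tested again. Of about 34,000 compounds tested this way, about 280 (0.84%) reached 50% or more in at least one test.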

structure,percent effect
[H][C@@]12CN(Cc3ccncc3)CC[C@]1([H])CN(c1cncnc1)C2,-3.376
FC(F)(F)c1cccc(CNc2nccc(C(F)(F)F)n2)c1,11.27
CC(C)c1nccn1-c1nccnc1C1CCCN1Cc1cccnc1 (stereo not shown),-6.266
COCCNS(=O)(=O)c1ccc2c(c1)CCN(C(=O)c1cncn1C)C2,-0.224
Cc1noc(CCCC(=O)Nc2ncccc2Br)n1,-15.31
COc1cccc(CSCC2=Nc3ccccc3S(=O)(=O)N2)c1,-15.51
COCCN1CCN(Cc2cnc(C(C)C)nc2)CC1,21.19
CN1CCOC(CNC(=O)Cc2ccccc2F)C1 (stereo not shown),-17.07 & -18.3 & 3.221
O=C(NCc1ccccc1F)NC1CCCN(c2ncccn2)C1 (stereo not shown),-1.597
Cc1cc(C)n(-c2cncc(N3CCC(C(=O)N(C)C)CC3)n2)n1,-6.476
CC(C)OCc1ncn2c1CN(Cc1cccs1)CCC2.O=C(O)C(F)(F)F,2.743
Cc1cccc(NC2CCN(C(=O)Nc3ccccn3)CC2)n1,-34.48 & -34.68 & 4.238
CC(C)(C)C(O)CN1CCN(Cc2ccc(C#N)cc2)CC1 (stereo not shown),-16.09
O=S(=O)(Cc1ccc(F)c(Cl)c1)NC(CO)c1ccco1 (stereo not shown),-14.17
CC(c1nc(C(C)(C)C)no1)N1CCN(Cc2ccc(C#N)cc2)CC1 (stereo not shown),12.43
[H][C@@]12CS(=O)(=O)C[C@]1([H])N(C(=O)CCn1cc(C)cn1)CCN2C(=O)C(C)C,-6.615
O=C1NCCN1C1CCN(Cc2coc(-c3ccccc3)n2)CC1,5.767
CCn1cc(CN2CCCN(C(=O)CCc3cnn(C)c3)CC2)cn1,4.619
Cc1ccc(O)c(C(=O)N2CCOCC2c2c(C)nn(C)c2C)c1 (stereo not shown),0.7842
CCOC(C)c1nc(CNc2cccc(Cl)c2OC)cs1 (stereo not shown),-8.214
CC(C)COC(C)C(=O)NCc1ccccc1 (stereo not shown),10.58
Cc1cc(CNC(=O)N2CCc3ccccc3C2CO)c(C)o1 (stereo not shown),-7.692
NCc1cn(-c2ccccc2C(=O)NCc2cccc(Cl)c2)cn1,-3.298
CN(C)c1cccc(C2CCCN2c2nc3c(cnn3C)c(=O)[nH]2)c1 (stereo not shown),17.01
O=C(c1cc2c(F)cccc2[nH]1)N1CCCCC1Cn1cccn1 (stereo not shown),-16.14
COc1cccc(CN2CCCCCC2c2cccc(F)c2)c1O (stereo not shown),7.894 & 40.42
COc1cncc(N2CCN(Cc3cccn3C)CC2)n1,-10.51
Cc1nnc(Nc2cccc(C3CCCN(Cc4ncc[nH]4)C3)n2)s1 (stereo not shown),7.572
[H][C@@]12CC[C@H](Oc3ccccc3F)[C@]1([H])CN(C(=O)COCCOC)C2,6.149
Cc1ccc(C)c(S(=O)(=O)NC(=O)COc2cccc(C#N)c2)c1,7.086
O=C(c1ccc2c(c1)OCO2)N1CCCC(n2ccnc2)C1 (stereo not shown),2.961
O=C(NCC1CC1)C1CN(Cc2cccs2)Cc2ccnn2C1 (stereo not shown),9.106
Cc1nn(CC(C)C)cc1S(=O)(=O)N(C)Cc1nonc1C,-5.36
Cc1cnn(CC2CCN(c3cc(C(C)C)nc4ccnn34)CC2)c1,-15.55
[H][C@@]12CS(=O)(=O)C[C@]1([H])N(Cc1nccs1)CCN2CCOC,-21.94
CN1CCOC(CNCc2coc(-c3ccc(Cl)cc3)n2)C1 (stereo not shown),-6.76
CC1CCN(S(=O)(=O)NCc2ccccc2Cn2cccn2)CC1,3.533
CSC(C)(C)CNC(=O)NC1CCN(CC=C(C)C)CC1,-11.76
CCC1c2ccc(C)n2CCN1C(=O)Cn1cnc2sc(C)cc2c1=O (stereo not shown),10.51
O=C(Nc1cc(-c2ccccc2)on1)N1CCN(CCO)CC1,64.88 & 38.14
CS(=O)(=O)N1CCCCC1c1ccc(Nc2cnccn2)nc1 (stereo not shown),7.636
[H][C@]12CC[C@@]3(N=C(CC)NC3=O)[C@@]1([H])CN(C(=O)NCc1ccccc1C)C2,4.875
NC(=O)NC(=O)CCN1CCCN(c2nccs2)CC1,-16.18
Cn1nccc1CCC(=O)N1CCOC(c2cnccn2)C1 (stereo not shown),3.152
O=C(O)C(F)(F)F.O=C(O)C(F)(F)F.[H][C@@]12CCN(Cc3ccsc3)C[C@]1([H])[C@@H](CN1CCOCC1)OC2,-1.14
O=C(NCC1CC1)Nc1cnc2ccc(F)cc2c1O,4.122
Oc1cc(C2CCCCN2Cc2ccsc2)nc(-c2ccncc2)n1 (stereo not shown),-1.937
O=C(O)C(F)(F)F.[H][C@@]12OCCN(CCOCc3ccccc3)[C@@]1([H])CC[C@@H]2OCC,-3.833
CN1C(=O)CC(c2cnn(C)c2)C12CCN(C(=O)C1CC=CC1)CC2 (stereo not shown),-8.457
CNC(=O)CN1C(=O)CCC12CCCN(CCc1ccccc1)C2 (stereo not shown),6.672
Cc1nn(C)c(C)c1C1CCCN1Cc1nc(N)c2ccccc2n1 (stereo not shown),-4.727
CCC(C)Sc1nncn1-c1ccc(OC)nc1 (stereo not shown),-7.108
O[C@H]1CN(CCOc2ccc(F)cc2)CC[C@@]12CCCO2,66.45 & 84.39 & 80.81
CC(C)N1CCOC(c2cc(CCO)[nH]n2)C1 (stereo not shown),-12.59
CN(C)c1ncc(-c2ccc(C(N)=O)cc2)c(C2CNCCO2)n1 (stereo not shown),-5.327
O=C(COc1coc(CN2CCCCC2)cc1=O)c1ccccc1,-11.9
CCOc1ncccc1NC(=O)NC1CCCN(c2ncccn2)C1 (stereo not shown),-1.6
CS(=O)(=O)N1CCOCC12CCN(Cc1ccoc1)CC2,-6.239
CCNc1cc2c(nn1)CCN(C(=O)C1CCc3ccccc31)C2 (stereo not shown),10.98
Cc1nc(CCNC(=O)NC2CCCc3c2cnn3CCO)cs1 (stereo not shown),-7.843
Cc1cnn(C2CN(CCOc3ccc(C#N)cc3)C2)c1,4.931
COc1c(C)cnc(CN2CCOC(Cn3nc(C)cc3C)C2)c1C (stereo not shown),8.38
CN1CCC(c2nnc3ccc(C(=O)NC4CCCC4)cn23)C1.O=C(O)C(F)(F)F (stereo not shown),3.837
[H][C@@]12CC(=O)N(CC)[C@@]1([H])CCN2S(=O)(=O)c1cccc(C)c1,5.304
O=C(NCCN1CCCCC1)c1ccn(-c2ccccc2)n1,15.61
CS(=O)(=O)NCC1CCCCN1C(=O)Nc1cccnc1N1CCCC1 (stereo not shown),1.917
O=C(O)[C@@H]1CN(CC2CCC2)C[C@H]1c1ccc(F)cc1,-5.789
O=C(c1cn(-c2ccccc2)nn1)N1CCOCC(O)C1 (stereo not shown),-12
CN1CCC(c2nc3ccc(-c4cccc(F)c4)cn3n2)CC1.O=C(O)C(F)(F)F,1.113
O=C(O)c1ccccc1-c1ccc(CN2CCC(CO)C2)cc1 (stereo not shown),-3.764
Cc1ccc(NC(=O)N2CCC(NC(=O)c3ccc(C)o3)CC2)cc1,-13.41
Cn1ncc2c(NCC3CCCN3c3cccnn3)ncnc21 (stereo not shown),1.48
Cc1nc(NCCN2CCCC2=O)cc(C2CN(C)CCO2)n1 (stereo not shown),20.23
CCn1ncc2c1CCCC2NCc1ccc(C)s1 (stereo not shown),58.64 & 6.47 & 8.575
Cc1cc(C(=O)NS(C)(=O)=O)c(C)n1-c1ccccc1,7.793 & 36.44 & 13.06
CCc1nc(C)c(C(=O)NCCNc2ncccc2C#N)s1,0.6439
CCOC(=O)c1sc2ccsc2c1CNC(=O)C(C)(C)C#N,-12.95
Cc1cc(NC(=O)CN2CCn3c(nnc3C(C)C)C2)no1,4.393
O=C(C1CCOC1)N1CCN(Cc2ccncc2)c2ncccc2C1 (stereo not shown),25.8
OC(COc1ccccc1)CN1CCc2c(ncn2C2CC2)C1 (stereo not shown),-15.69
[H][C@@]12C[C@H](C(=O)Nc3cccnc3)[C@@]([H])(CN(Cc3ccc(OC)cc3)C1)O2,-5.241

The first 10 entries again:

{"structure": "[H][C@@]12CN(Cc3ccncc3)CC[C@]1([H])CN(c1cncnc1)C2", "percent effect": -3.376}
{"structure": "FC(F)(F)c1cccc(CNc2nccc(C(F)(F)F)n2)c1", "percent effect": 11.27}
{"structure": "CC(C)c1nccn1-c1nccnc1C1CCCN1Cc1cccnc1", "stereo": "stereo not shown", "percent effect": -6.266}
{"structure": "COCCNS(=O)(=O)c1ccc2c(c1)CCN(C(=O)c1cncn1C)C2", "percent effect": -0.224}
{"structure": "Cc1noc(CCCC(=O)Nc2ncccc2Br)n1", "percent effect": -15.31}
{"structure": "COc1cccc(CSCC2=Nc3ccccc3S(=O)(=O)N2)c1", "percent effect": -15.51}
{"structure": "COCCN1CCN(Cc2cnc(C(C)C)nc2)CC1", "percent effect": 21.19}
{"structure": "CN1CCOC(CNC(=O)Cc2ccccc2F)C1", "stereo": "stereo not shown", "percent effect": "-17.07 & -18.3 & 3.221"}
{"structure": "O=C(NCc1ccccc1F)NC1CCCN(c2ncccn2)C1", "stereo": "stereo not shown", "percent effect": -1.597}
{"structure": "Cc1cc(C)n(-c2cncc(N3CCC(C(=O)N(C)C)CC3)n2)n1", "percent effect": -6.476}

Measurements from “University of Dundee, Small-Polar-MMV Screening Library” (2021), ChEMBL document CHEMBL3988442.